## Results from one PubChem assay

Source: PubChem BioAssay AID912 (NCATS, 2007).

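Uptake of anthrax lethal toxin into cultured cells, read by FRET (460/530 nm ratio) and reported from the 460 nm channel; the cell line is not named here.
Each compound was tested as a concentration series from about 0.0005 to 40 µM.
The number is the fitted AC50 of the 460 nm signal alone; lower values mean a more potent effect. A falling signal goes with compounds filed as inhibitors or cytotoxic, a rising one with activators or fluorescent compounds (inferred from the filed classes).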

Values are in µM.
Common to all entries: measured here: 460 nm channel.
Part of the compounds only, not a random draw; the main read-out is not listed here.
Potencies fitted to partial, single-point or poorly fitting curves are rough.
The first word of each remark tells which way the curve ran; it can be opposite to the aim of the assay.

* COc1ccc2cc1Oc1ccc(cc1)C[C@H]1c3cc(c(OC)cc3CCN1C)Oc1c(OC)c(OC)cc3c1[C@@H](C2)N(C)CC3 | AC50 12.59 µM (falling, partial curve)
* CCOC(=O)c1[nH]c2c(c1C)C(=O)CC(c1ccco1)C2 (stereo not given) | AC50 0.3162 µM (falling, full curve, poor fit)
* NC1=C(O)C(=O)[C@H](c2c[nH]c3ccc(OCc4ccccc4)cc23)O1 | AC50 1 µM (falling, single point)
* O=C(CC1SC2=NCCN2C1=O)Nc1ccc(Br)cc1 (stereo not given) | AC50 1.585 µM (falling, full curve)
* COc1ccc(C2C(=O)N(C3CCCCC3)CC(=O)N2CCc2ccccc2)cc1OC (stereo not given) | AC50 6.31 µM (rising, partial curve, poor fit)
* Cc1ccc(CN2C(=O)NC(=O)C3(Cc4c(nc5ccccn5c4=O)N4CCCCCC43)C2=O)cc1 (stereo not given) | AC50 0.2512 µM (falling, partial curve)
* CCc1ccc2c(CN3CCc4ccccc43)cc(=O)oc2c1 | AC50 5.012 µM (falling, partial curve)
* Cc1noc(C)c1-c1cncnc1NCc1cccnc1 | AC50 0.631 µM (falling, single point)
* O=S(=O)(c1cccc(-c2cn3cccnc3n2)c1)N1CCCCCC1 | AC50 2.512 µM (rising, full curve)
* CCCCn1c(=NC(=O)c2ccco2)c(C(=O)OCC)cc2c(=O)n3ccccc3nc21 | AC50 12.59 µM (rising, partial curve)
* Cc1cccc(C)c1NC(=O)CSc1nnc([C@H](C)NC(=O)OC(C)(C)C)o1 | AC50 0.007943 µM (falling, full curve, poor fit)
* O=C(N1CCOCC1)N1CCN(S(=O)(=O)N2CCOCC2)CC1 | AC50 0.01995 µM (falling, full curve, poor fit)
* Cc1ccccc1-n1c(SCc2c(C)noc2C)nnc1-c1ccncc1 | AC50 7.943 µM (rising, partial curve)
* O=S(=O)(c1ccc(Cl)c(Cl)c1)N1CCc2nc3ccccc3n2CC1 | AC50 5.012 µM (rising, single point)
* COc1ccc(NC(=O)c2cc(-c3cc(C)cc(C)c3O)n[nH]2)cc1Cl | AC50 7.943 µM (falling, partial curve)
* COc1ccccc1N1CCN(C(=O)C(Cc2ccccc2)NC(=O)C2CCCCC2)CC1 (stereo not given) | AC50 15.85 µM (rising, partial curve)
* COc1ccc(-n2c(=O)c(-c3ccccc3)nc3cnc(N4CCOCC4)nc32)cc1 | AC50 10 µM (rising, partial curve)
* COc1ccc(S(=O)(=O)N(C)CC(=O)N2CCC(C(N)=O)CC2)cc1Cl | AC50 3.162 µM (falling, single point)
* CCOC(=O)C(NCc1ccccn1)(NC(=O)c1cccnc1)C(F)(F)F (stereo not given) | AC50 1.585 µM (rising, single point)
* CCOC(=O)Cn1c(CN2CC(C)OC(C)C2)nc2c1c(=O)n(C)c(=O)n2C (stereo not given) | AC50 12.59 µM (rising, single point)
* O=C(C1CCN(S(=O)(=O)c2cccc3cccnc23)CC1)N1CCN(c2ccc(Cl)cc2)CC1 | AC50 10 µM (falling, partial curve)
* Nc1nc(Nc2cccc(F)c2)nc2ccccc12 | AC50 10 µM (falling, single point)
* c1ccc(SCCSc2ccccc2)cc1 | AC50 3.162 µM (falling, full curve, poor fit)
* Cc1cc(NS(=O)(=O)c2ccc(NC(=O)Nc3ccc4c(c3)OCO4)cc2)no1 | AC50 3.981 µM (falling, single point)
* O=C(CSc1nc(-c2ccco2)cc(C(F)(F)F)n1)N1CCN(Cc2ccccc2)CC1 | AC50 10 µM (falling, single point)
* COc1ccc(-c2n[nH]c(C)c2-c2ccc(Cl)cc2)c(O)c1OC | AC50 12.59 µM (falling, partial curve)
* COc1ccc(-n2c(=O)c(-c3ccc(F)cc3)nc3cnc(N4CCNCC4)nc32)cc1 | AC50 12.59 µM (rising, partial curve)

Some entries from above, unchanged:

Compound,AC50 (µM),curve as filed
CCCCn1c(=NC(=O)c2ccco2)c(C(=O)OCC)cc2c(=O)n3ccccc3nc21,12.59,"rising, partial curve"
O=C(CSc1nc(-c2ccco2)cc(C(F)(F)F)n1)N1CCN(Cc2ccccc2)CC1,10,"falling, single point"
COc1ccccc1N1CCN(C(=O)C(Cc2ccccc2)NC(=O)C2CCCCC2)CC1 (stereo not given),15.85,"rising, partial curve"